From article PMC9481135
No constants are given. Whether binding was seen depends on the method and setting. Some entries that bind do so weakly or less than the wild type.

Chains of the proteins cited; added tags and fusions are not shown. Residues count along the entry.
UniProt P56536, residues 2-955: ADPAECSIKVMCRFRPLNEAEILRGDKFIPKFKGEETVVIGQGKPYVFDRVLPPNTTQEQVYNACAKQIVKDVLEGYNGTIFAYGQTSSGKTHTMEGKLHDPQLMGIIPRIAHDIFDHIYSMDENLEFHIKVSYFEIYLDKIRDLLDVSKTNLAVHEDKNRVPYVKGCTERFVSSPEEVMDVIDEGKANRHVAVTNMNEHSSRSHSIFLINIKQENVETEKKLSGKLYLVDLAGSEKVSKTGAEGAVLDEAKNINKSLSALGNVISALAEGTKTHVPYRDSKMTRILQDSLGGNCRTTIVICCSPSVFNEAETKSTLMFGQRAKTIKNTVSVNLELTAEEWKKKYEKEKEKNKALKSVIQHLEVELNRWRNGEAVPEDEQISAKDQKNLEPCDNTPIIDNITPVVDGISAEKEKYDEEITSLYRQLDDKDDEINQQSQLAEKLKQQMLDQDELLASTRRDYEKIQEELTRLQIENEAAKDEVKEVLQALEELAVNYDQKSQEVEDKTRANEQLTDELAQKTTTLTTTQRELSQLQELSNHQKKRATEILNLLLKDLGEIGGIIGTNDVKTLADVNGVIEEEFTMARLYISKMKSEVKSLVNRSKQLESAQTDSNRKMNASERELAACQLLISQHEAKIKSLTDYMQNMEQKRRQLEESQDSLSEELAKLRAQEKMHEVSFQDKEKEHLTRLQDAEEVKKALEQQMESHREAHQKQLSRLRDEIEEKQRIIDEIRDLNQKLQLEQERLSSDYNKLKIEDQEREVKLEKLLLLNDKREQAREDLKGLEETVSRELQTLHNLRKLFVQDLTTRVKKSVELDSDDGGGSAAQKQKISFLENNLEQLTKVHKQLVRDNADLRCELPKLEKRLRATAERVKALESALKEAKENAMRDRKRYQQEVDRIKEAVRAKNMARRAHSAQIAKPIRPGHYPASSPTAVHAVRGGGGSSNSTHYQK

Target: Rat KIF5C (kinesin-1 heavy chain), residues 2 to 955 (rat) (UniProt P56536)
Assay: negative-stain EM (single particle); Co-expressed, co-purified complex from SEC peak 2, cross-linked with 0.6 mM BS3, stained with 3% uranyl acetate; cryo-negative-stain dataset, RELION 2D classes and 3D reconstruction at 29.1 Å

Substance: Rat KIF5C (kinesin-1 heavy chain), residues 2 to 955 (from UniProt P56536 2-955)
- binding: binds
